Reference: PubChem BioAssay AID504467 (National Center for Advancing Translational Sciences (NCATS), 2011)
Screen size: about 330,000 compounds; about 7,700 (2.3%) were called active. Inconclusive means that the source gave no clear call. Such entries were picked first, then a sample of the others. The call rests on the fitted dose curve; in most records, active means well fitted inhibition curve with a large enough effect; inconclusive means small, poorly fitted or top-dose-only effect, or effect the other way; inactive means flat fitted curve, though single readings scatter. Potencies beside an inconclusive call are fits to weak or partial responses and may not hold up.

assay: qHTS screen for small molecules that inhibit ELG1-dependent DNA repair in human embryonic kidney (HEK293T) cells expressing luciferase-tagged ELG1; conditions: HEK293T ELG1-luciferase reporter, luminescence, 16 h, DNA damage induced by 5-fluorouridine; activity change, negative = inhibition: at 46.1 µM (top of the series); further: nearly all actives have a fitted effect of over 55% in size
In short: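 Cells (2,000 per well) received 5-fluorouridine plus test compound or DMSO and were incubated 16 hr at 37 °C, 5% CO2. Luciferase activity was read by luminescence 30 min after ONE-Glo addition; signal suppression marked inhibition of damage-induced ELG1 function.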
On the % scale 0 is the no-effect control and ±100 the full control effect; potency means the concentration at half of the fitted maximal effect.

| SMILES | Potency | activity change, negative = inhibition |
| --- | --- | --- |
| CC(=O)Nc1ccc(N/C=C2/CCCC2=O)cc1 | inconclusive: 25.9 µM [activator, single point] |  |
| CSc1ccc(C(=O)C2CCCN(C(=O)CCCn3cncn3)C2)cc1 (centres undefined) | inconclusive: 0.0052 µM [inhibitor, full curve, poor fit] |  |
| O=C1NCCN(Cc2ccc(-c3ccccc3)cc2)C1CC(=O)N1CCN(CCO)CC1 (centres undefined) |  | inactive: -14.1% |
| CCCCOC(=O)Nc1cccc(C(=O)OCC)c1 | inconclusive: 0.411 µM [activator, partial curve, poor fit] |  |
| C=CCSc1nc(N)c(C#N)c(-c2ccc(C)cc2)c1C#N | inconclusive: 20.6 µM [inhibitor, partial curve, poor fit] |  |
| CC1(C)CC(=O)C(C=Nc2cccnc2)=C(O)C1 |  | inactive: -1.31% |
| O=C(c1cccs1)N1CCN(S(=O)(=O)c2ccccc2)CC1 | inconclusive: 32.6 µM [inhibitor, partial curve, poor fit] |  |
| COc1ccc(OC)c(/C=C2\SC(=S)N(C(C(=O)O)c3ccccc3)C2=O)c1 (centres undefined) |  | inactive: -3.26% |
| COc1ccc(CN(Cc2ccc(C(=O)O)cc2)C(=S)Nc2ccccc2Cl)cc1OC | inconclusive: 0.231 µM [activator, full curve, poor fit] |  |
| O=c1c(-c2ccc3c(c2)OCCO3)coc2cc(O)cc(O)c12 | inconclusive: 2.31 µM [activator, full curve] |  |
| Cc1nn(C2CCS(=O)(=O)C2)c(Cl)c1/C=C/C(=O)OCC(=O)Nc1ccc2c(c1)OCO2 (centres undefined) |  | inactive: -8.62% |
| O=C(c1cccc(S(=O)(=O)N2CCCCCC2)c1)N1CCN(c2ccccc2F)CC1 | inconclusive: 20.6 µM [inhibitor, single point] |  |
| Cc1cc(/C=N\NC(=O)CC(=O)NC2CCCCC2)c(C)n1-c1ccc(Cl)c(Cl)c1 |  | inactive: -8.48% |
| COC(=O)CC1Oc2ccccc2N(Cc2ccc(C)cc2)C1=O (centres undefined) | inconclusive: 14.6 µM [inhibitor, single point] |  |
| Cc1cc(O)ccc1N1C(=O)c2cccc3cc([N+](=O)[O-])cc(c23)C1=O |  | inactive: -11.1% |
| O=C(Nc1ccc(NC(=O)c2cccs2)cc1)c1ccco1 | inconclusive: 20.6 µM [activator, partial curve] |  |
| Brc1ccccc1CN1CCC(N2CCCCC2)CC1 | inconclusive: 20.6 µM [inhibitor, single point] |  |
| CC(=O)c1ccc(OCCCC(=O)Nc2ccc(C)c(S(=O)(=O)N3CCOCC3)c2)cc1 | inconclusive: 29.1 µM [inhibitor, single point] |  |
| Cc1cc(=O)oc2c(CN3CCCC3)c(O)ccc12 |  | inactive: -2.63% |
| CSc1nnc(Cc2cc(=O)[nH]c(=O)[nH]2)n1-c1cc(C)ccc1C | inconclusive: 29.1 µM [activator, single point] |  |
| CC(=O)N/N=C/c1cc([N+](=O)[O-])ccc1OCCOc1ccccc1 | inconclusive: 11.2 µM [inhibitor, partial curve, poor fit] |  |
| O=C(Nc1c(F)cc(F)cc1Br)c1cc(S(=O)(=O)N2CCN(c3ccccn3)CC2)ccc1F | inconclusive: 20.6 µM [inhibitor, single point] |  |
| CC(c1ccccc1)N1CC(C(=O)Nc2ccc(F)cc2)CC1=O (centres undefined) |  | inactive: 18.5% |
| Cc1ccc(S(=O)(=O)c2cc(O)ccc2O)cc1C | inconclusive: 16.4 µM [inhibitor, single point] |  |
| Oc1ccc(CN2CCN(Cc3ccccc3)CC2)c2cccnc12 |  | inactive: -0.769% |

Seven structures already listed, arranged by heavy-atom count, rising.

| SMILES | Potency | activity change, negative = inhibition |
| --- | --- | --- |
| CCCCOC(=O)Nc1cccc(C(=O)OCC)c1 | inconclusive: 0.411 µM [activator, partial curve, poor fit] |  |
| O=C(c1cccs1)N1CCN(S(=O)(=O)c2ccccc2)CC1 | inconclusive: 32.6 µM [inhibitor, partial curve, poor fit] |  |
| COC(=O)CC1Oc2ccccc2N(Cc2ccc(C)cc2)C1=O (centres undefined) | inconclusive: 14.6 µM [inhibitor, single point] |  |
| CC(=O)N/N=C/c1cc([N+](=O)[O-])ccc1OCCOc1ccccc1 | inconclusive: 11.2 µM [inhibitor, partial curve, poor fit] |  |
| Cc1cc(O)ccc1N1C(=O)c2cccc3cc([N+](=O)[O-])cc(c23)C1=O |  | inactive: -11.1% |
| COc1ccc(OC)c(/C=C2\SC(=S)N(C(C(=O)O)c3ccccc3)C2=O)c1 (centres undefined) |  | inactive: -3.26% |
| COc1ccc(CN(Cc2ccc(C(=O)O)cc2)C(=S)Nc2ccccc2Cl)cc1OC | inconclusive: 0.231 µM [activator, full curve, poor fit] |  |

Additional entries

| SMILES | Potency | activity change, negative = inhibition |
| --- | --- | --- |
| COc1ccc(CNC(=O)C(c2ccco2)N(C(=O)CNS(=O)(=O)c2ccccc2)c2ccccc2C)cc1 (centres undefined) | inconclusive: 20.6 µM [inhibitor, single point] |  |
| CC1CCN(Cc2nc(-c3ccc(Cl)cc3)no2)CC1 | inconclusive: 20.6 µM [activator, partial curve] |  |
| CCc1nn(CCCC(=O)NCc2ccccc2C)c(=O)c2cc3occc3n12 |  | inactive: 0.56% |
| O=C(CSc1nc(=O)[nH]c2c1CCCC2)Nc1ccc(F)cc1F |  | inactive: 19.6% |
| C=C1N(C)c2cc([N+](=O)[O-])c(N)cc2C1(C)C |  | inactive: -2.16% |
| Cc1ccc(/C=C2\Oc3cc(OCC(=O)NN)ccc3C2=O)o1 |  | inactive: 12% |
| c1ccc(Nc2ccccn2)nc1 |  | inactive: 10% |
| CN(Cc1ccc(C(F)(F)F)cc1)C(=O)C1CC(=O)N(Cc2ccco2)C1 (centres undefined) |  | inactive: 0% |
| CC1CCC(C#N)(N(C)C(=O)CSc2nnc(C3CC3)n2C2CC2)CC1 (centres undefined) | inconclusive: 18.3 µM [activator, partial curve, poor fit] |  |
| Brc1ccccc1-c1nc2c3ccccc3ncn2n1 | inconclusive: 0.184 µM [activator, partial curve, poor fit] |  |
| CCOC(=O)C1=C(C)NC(=O)C1CC(=O)Nc1ccccc1 (centres undefined) | inconclusive: 25.9 µM [activator, single point] |  |
| COC(=O)Cc1[nH]nc2c1C(C1C=CCCC1)C(C#N)=C(N)O2 (centres undefined) |  | inactive: 2.49% |
| O=C(CSc1nc2ccc(NC(=O)C3CCCCC3)cc2s1)NCC1CCCO1 (centres undefined) | active: 13 µM |  |
| CCOC(=O)c1cnc2ccccc2c1NCc1ccco1 |  | inactive: -4.27% |
| O=C(c1ccc(-c2ccc([N+](=O)[O-])cc2)o1)N1CCCCC1 | inconclusive: 5.17 µM [activator, partial curve] |  |
| COc1cc2ncnc(NCc3cc(F)ccc3F)c2cc1OC |  | inactive: 6.22% |
| CCc1c(C#N)c(SCCC(=O)Nc2ccc(F)cc2)nc2c1C(=O)CC(C)(C)C2 | inconclusive: 29.1 µM [inhibitor, single point] |  |
| Cc1ccc(C2=C(O)c3ccccc3C(=O)C2=O)cc1 |  | inactive: -7.12% |
| COc1ccc2cc3cc(C(=O)Nc4ccccc4N4CCN(C)CC4)oc3nc2c1 |  | inactive: -23.3% |
| Cc1c(N/C(=N/S(=O)(=O)c2ccc(F)cc2)c2ccccc2)c(=O)n(-c2ccccc2)n1C |  | inactive: 0.555% |
| CCCCCCCN1C(Nc2ccccc2)=NC[C@@H]1Cc1ccccc1 |  | inactive: -23.1% |
| CC(=O)c1ccccc1Oc1nc(CN2CCOCC2)nc2scc(-c3cccs3)c12 | inconclusive: 14.6 µM [inhibitor, partial curve] |  |
| CCCc1ccc(-c2ccc(C(=O)O)cc2)nc1 | inconclusive: 0.82 µM [activator, full curve] |  |
| COc1ccc(C)c2sc(N(CCN(C)C)C(=O)/C=C/c3cccs3)nc12 | inconclusive: 10.3 µM [activator, partial curve, poor fit] |  |
| CCCOc1ccc(-c2nc(OC)c3ccccc3n2)cc1 | inconclusive: 20.6 µM [activator, single point] |  |

| SMILES | Potency | activity change, negative = inhibition |
| --- | --- | --- |
| COCCCn1cnc2c(c1=O)c1nc3ccccc3nc1n2-c1ccccc1 |  | inactive: 0% |
| Cc1cc2oc(=O)cc(Cn3ccnc3)c2cc1C |  | inactive: -0.467% |
| CCOC(=O)C1CCN(c2cc3c(cc2NC(=O)c2ccc(OC)c(OC)c2)n(C)c(=O)n3C)CC1 | active: 1.64 µM |  |
| COC(=O)C1=C(C)N(CC2CC2)C(=NCc2cccc(Cl)c2)N[C@H]1c1ccccc1 |  | inactive: 6.63% |
| O=C(Nc1ccc(Oc2ccccc2)cc1)c1cnc2n(c1=O)CCS2 | inconclusive: 1.46 µM [inhibitor, partial curve, poor fit] |  |
| O=C(O)c1cccc(Nc2ncnc3ccccc23)c1 |  | inactive: 1.53% |
| CN(C)c1ccc(C(=O)OCC(=O)c2ccc[nH]2)cc1 | inconclusive: 5.8 µM [activator, partial curve] |  |
| O=C(O)C1CCC(CNS(=O)(=O)c2ccc(Cl)cc2)CC1 (centres undefined) |  | inactive: 12% |
| COc1ccc(-c2c(C#N)c(N)nc(Sc3ccc(Cl)cc3)c2C#N)cc1 | inconclusive: 18.3 µM [activator, partial curve] |  |
| COc1cc(NC(=O)c2ccc3nsnc3c2)cc(OC)c1OC |  | inactive: 21.3% |
| COc1ccc(C)c2sc(=NC(=O)c3ccc(C(C)=O)cc3)n(C)c12 | inconclusive: 2.06 µM [activator, full curve] |  |
| COc1cccc(-c2cc(C(=O)Nc3ccccc3SC)no2)c1 | inconclusive: 11.6 µM [activator, partial curve] |  |
| O=C(NC(=S)Nc1ccc(C(F)(F)F)cc1)c1csnn1 |  | inactive: 11.7% |
| O=C(CSc1nc2ccccc2o1)N/N=C/c1ccco1 | inconclusive: 18.3 µM [activator, partial curve] |  |
| Cc1ccc(-c2csc(NC(=O)/C=C/c3cccs3)n2)cc1C | inconclusive: 23.1 µM [inhibitor, single point] |  |
| Clc1nnc(N/N=C/c2ccccc2)c2ccccc12 | inconclusive: 16.4 µM [activator, partial curve] |  |
| O=C(CC1C[C@H](C(=O)N2CCOCC2)[C@@]2(CCC3CCCC3)c3[nH]c4ccccc4c3CCN2C1=O)NCCC1=CCCCC1 (some centres undefined) |  | inactive: 18.4% |
| O=C(NCC1CCCO1)c1ccc(S(=O)(=O)Nc2ccc(F)cc2)cc1 (centres undefined) | inconclusive: 18.3 µM [inhibitor, single point] |  |
| CCC(CC)C(=O)NCc1ccc2c(c1)cc(C)n2C |  | inactive: -5.39% |
| CCn1c(SCc2ccc(OC)c(F)c2)nc2ccccc2c1=O |  | inactive: -13.9% |
| CON(C)C(=O)CC(CN(Cc1ccccc1)C(=O)OC(C)(C)C)c1ccc(Cl)cc1 (centres undefined) | inconclusive: 29.1 µM [inhibitor, single point] |  |
| Cn1cc(Cl)c(C(=O)Nc2nc3ccc([N+](=O)[O-])cc3s2)n1 | inconclusive: 10.3 µM [activator, partial curve, poor fit] |  |
| Cc1ccccc1-n1ncc2c(SCC(=O)NC3CCCC3)ncnc21 | inconclusive: 9.2 µM [inhibitor, partial curve, poor fit] |  |
| O=C(CSc1n[nH]c(-c2cccs2)n1)N1CCN(S(=O)(=O)c2ccc3ccccc3c2)CC1 | inconclusive: 29.1 µM [inhibitor, single point] |  |
